By UniProt entry, the sequences of proteins in these tests, tags left out. Where a name states a change or a piece, a line headed by the entry shows the natural chain unless it says otherwise.
UniProt P15976: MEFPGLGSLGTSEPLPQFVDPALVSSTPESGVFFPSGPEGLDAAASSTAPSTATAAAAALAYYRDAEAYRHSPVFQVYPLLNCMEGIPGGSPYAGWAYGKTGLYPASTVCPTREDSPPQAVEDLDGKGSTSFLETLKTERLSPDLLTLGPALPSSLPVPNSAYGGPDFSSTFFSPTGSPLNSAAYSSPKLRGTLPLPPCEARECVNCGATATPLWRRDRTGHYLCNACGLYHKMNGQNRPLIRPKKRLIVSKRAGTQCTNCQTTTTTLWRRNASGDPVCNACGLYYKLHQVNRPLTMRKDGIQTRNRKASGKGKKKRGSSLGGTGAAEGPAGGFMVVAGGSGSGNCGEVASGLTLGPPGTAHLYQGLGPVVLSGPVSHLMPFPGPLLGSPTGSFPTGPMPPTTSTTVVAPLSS
UniProt P17676: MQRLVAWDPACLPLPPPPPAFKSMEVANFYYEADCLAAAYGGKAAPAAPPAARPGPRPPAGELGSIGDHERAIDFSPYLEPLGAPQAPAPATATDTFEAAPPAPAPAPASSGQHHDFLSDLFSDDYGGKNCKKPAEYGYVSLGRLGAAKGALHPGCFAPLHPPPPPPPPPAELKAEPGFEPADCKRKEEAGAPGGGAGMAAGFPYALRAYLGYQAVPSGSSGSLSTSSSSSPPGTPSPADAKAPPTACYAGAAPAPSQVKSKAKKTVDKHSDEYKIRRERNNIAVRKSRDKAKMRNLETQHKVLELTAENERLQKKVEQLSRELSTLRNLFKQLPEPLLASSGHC

According to publication PMC3218954:

Tests used:
[1] = biological target: GATA-1 (Homo sapiens (MCF7 cells)) (UniProt P15976); assay: EMSA supershift; conditions: MCF7 nuclear extract, anti-GATA-1, cold self competes; EMSA: 20 mM HEPES pH 7.4, 0.1 mM EDTA, 75 mM KCl, 2.5 mM MgCl2, 1 mM DTT, 5% glycerol, 0.05 mg/mL poly(dI:dC), 5 ug nuclear extract, room temperature; protein in an extract; label: 32P 5' end
[2] = biological target: C/EBP-beta (Homo sapiens (MCF7 cells)) (UniProt P17676); assay: EMSA supershift; conditions: MCF7 nuclear extract, anti-C/EBP-beta, cold self competes; EMSA: 20 mM HEPES pH 7.4, 0.1 mM EDTA, 75 mM KCl, 2.5 mM MgCl2, 1 mM DTT, 5% glycerol, 0.05 mg/mL poly(dI:dC), 5 ug nuclear extract, room temperature; protein in an extract; label: 32P 5' end
[3] = biological target: C/EBP-beta (Homo sapiens (MCF7 cells)) (UniProt P17676); assay: competition with a labelled probe; conditions: MCF7 nuclear extract, excess cold mutant vs labeled N1; EMSA: 20 mM HEPES pH 7.4, 0.1 mM EDTA, 75 mM KCl, 2.5 mM MgCl2, 1 mM DTT, 5% glycerol, 0.05 mg/mL poly(dI:dC), 5 ug nuclear extract, room temperature; protein in an extract; label: none (cold competitor), 32P when used as probe
[4] = biological target: GATA-1 (Homo sapiens (MCF7 cells)) (UniProt P15976); assay: competition with a labelled probe; conditions: MCF7 nuclear extract, excess cold mutant vs labeled N3; EMSA: 20 mM HEPES pH 7.4, 0.1 mM EDTA, 75 mM KCl, 2.5 mM MgCl2, 1 mM DTT, 5% glycerol, 0.05 mg/mL poly(dI:dC), 5 ug nuclear extract, room temperature; protein in an extract; label: none (cold competitor), 32P when used as probe

Sequence: AATCATTTATCTCATTTAAGGTACC (double strand) [Jab1 -435/-417 GATA1 WT]
- binding result [1]: binds

Sequence: CCTTACCTTTTAGTCTTTCAACAAACT (double strand) [Jab1 -462/-436 CEBP WT]
- binding result [2]: binds

Sequence: CCTTACCTTTTAGTCTTTCCTGCAAACT (double strand) [Jab1 -462/-436 CEBP Mut (M1)]
- binding result [3]: no binding

Sequence: GGAGTCATTTAAGGTACCTATACCC (double strand) [Jab1 -435/-417 GATA1 M1]
- binding result [4]: no binding

Construct, isoform or probe ends are uncertain for at least one entry. Where cells or extracts were used, other partners may take part. For some of these results: No signal at the amounts used counts as a negative.
